PubChem BioAssay AID1159578, Peter MacCallum Cancer Centre – 2015

Assay: 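Knock-downs that alter how fast lymphatic endothelial cells migrate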 (primary screen)
Cell system: human lymphatic endothelial cells
Knock-down reagent: siRNA pool against human genes, 40 nM
Duration: 48 h after transfection
Measurement: 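High-content imaging of dye-stained cells in a scratch assay measures filled wound area and nuclei per well; duplicate means given as ratio to mock and robust z-score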
Direction: migration robust z-score: higher = faster migration into the scratch; migration relative to mock: higher = more scratch area covered than mock; nuclei per well: higher = more cells in the well
Call rule: 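Migration changed when robust z exceeds 2 or falls below -2 and mean nuclei number is at least 3300; otherwise not called changed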
Meaning of the calls: active = migration changed; inactive = no migration change, or too few cells
The deposit covers about 18,000 reagents; shown is a random part of them. In the full data, about 1,030 (5.7%) were called active. 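Inactive calls also include pools with fewer than 3300 nuclei, whose migration was not assessed.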 Raw values vary from plate to plate and are shown uncorrected. Unmarked entries are inactive.

| gene knocked down | migration robust z-score | migration class with cell-count check | migration relative to mock | nuclei per well, duplicate mean |
| --- | --- | --- | --- | --- |
| LINC00471 (long independently transcribed non-coding RNA 471) | -0.44 | migration z between -2 and 2; enough cells | 0.77 | 6132 |
| CETN3 (centrin 3) | 0.86 | migration z between -2 and 2; enough cells | 1.11 | 6342 |
| MYC (MYC proto-oncogene, bHLH transcription factor) | -1.35 | migration z between -2 and 2; enough cells | 0.55 | 4732 |
| CCDC60 (coiled-coil domain containing 60) | 0.79 | migration z between -2 and 2; enough cells | 1.09 | 4908 |
| NEUROD6 (neuronal differentiation 6) | 0.04 | migration z between -2 and 2; enough cells | 0.9 | 4869 |
| TSPAN18 (tetraspanin 18) | -0.54 | migration z between -2 and 2; enough cells | 0.75 | 5402 |
| KRTAP19-1 (keratin associated protein 19-1) | -0.34 | migration z between -2 and 2; enough cells | 0.8 | 5896 |
| PRELID3B (PRELI domain containing 3B) | -4.13 | under 3300 nuclei; migration not judged | -0.16 | 2460 |
| SLC25A12 | -0.25 | migration z between -2 and 2; enough cells | 0.82 | 6434 |
| GYPA (glycophorin A (MNS blood group)) | -0.46 | migration z between -2 and 2; enough cells | 0.72 | 6498 |
| SLC9A2 | 0.68 | migration z between -2 and 2; enough cells | 0.94 | 5324 |
| ADRA1D (adrenoceptor alpha 1D) | 0.55 | migration z between -2 and 2; enough cells | 0.91 | 5445 |
| LIPN (lipase family member N) | -2.1 (active) | migration z below -2; enough cells | 0.4 | 4150 |
| ZNF483 (zinc finger protein 483) | -0.21 | migration z between -2 and 2; enough cells | 0.83 | 4426 |
| PALB2 (partner and localizer of BRCA2) | 0.34 | under 3300 nuclei; migration not judged | 0.98 | 3167 |
| AVPR2 (arginine vasopressin receptor 2) | -0.8 | migration z between -2 and 2; enough cells | 0.65 | 5670 |
| ZNHIT2 (zinc finger HIT-type containing 2) | 1.56 | migration z between -2 and 2; enough cells | 1.29 | 4919 |
| UGT1A9 (UDP glucuronosyltransferase family 1 member A9) | -3.45 | under 3300 nuclei; migration not judged | 0.14 | 3177 |
| NSUN5P1 (NSUN5 pseudogene 1) | 0.26 | migration z between -2 and 2; enough cells | 0.96 | 4830 |
| MED20 (mediator complex subunit 20) | 1.1 | migration z between -2 and 2; enough cells | 1.17 | 5040 |
| WNT8B (Wnt family member 8B) | -0.52 | migration z between -2 and 2; enough cells | 0.76 | 4279 |
| ZNF71 (zinc finger protein 71) | -1.29 | migration z between -2 and 2; enough cells | 0.55 | 4610 |
| PRSS1 (serine protease 1) | 0.08 | migration z between -2 and 2; enough cells | 0.82 | 5679 |
| AIMP1 | -0.21 | migration z between -2 and 2; enough cells | 0.83 | 4814 |
| DNAJC2 (DnaJ heat shock protein family (Hsp40) member C2) | -0.65 | migration z between -2 and 2; enough cells | 0.72 | 5520 |
| OR4F29 (olfactory receptor family 4 subfamily F member 29) | -0.24 | migration z between -2 and 2; enough cells | 0.82 | 5460 |
| ADD2 (adducin 2) | 0.64 | migration z between -2 and 2; enough cells | 1.05 | 5759 |
| FGF20 (fibroblast growth factor 20) | 0.26 | migration z between -2 and 2; enough cells | 0.86 | 4613 |
| POLE (DNA polymerase epsilon, catalytic subunit) | -0.62 | under 3300 nuclei; migration not judged | 0.68 | 2160 |
| SYMPK (symplekin scaffold protein) | -0.58 | migration z between -2 and 2; enough cells | 0.74 | 5806 |
| CXCL17 (C-X-C motif chemokine ligand 17) | 0.35 | migration z between -2 and 2; enough cells | 0.98 | 6590 |
| NR4A1 (nuclear receptor subfamily 4 group A member 1) | -0.23 | migration z between -2 and 2; enough cells | 0.76 | 6978 |
| ESCO1 | -0.3 | migration z between -2 and 2; enough cells | 0.81 | 5236 |
| CENPI (centromere protein I) | -1.32 | migration z between -2 and 2; enough cells | 0.54 | 7514 |
| TAS2R50 (taste 2 receptor member 50) | 0.35 | migration z between -2 and 2; enough cells | 0.98 | 5556 |
| HLCS (holocarboxylase synthetase) | 0.78 | migration z between -2 and 2; enough cells | 0.96 | 6440 |
| HID1 (HID1 domain containing) | -0.03 | migration z between -2 and 2; enough cells | 0.88 | 5596 |
| UBE2T (ubiquitin conjugating enzyme E2 T) | -1.09 | migration z between -2 and 2; enough cells | 0.59 | 5220 |
| PYCR3 (pyrroline-5-carboxylate reductase 3) | -0.42 | migration z between -2 and 2; enough cells | 0.73 | 4561 |

As entered above.
For “nuclei per well, duplicate mean”, PRELID3B (PRELI domain containing 3B) shows 2460
CENPI (centromere protein I), migration class with cell-count check → migration z between -2 and 2; enough cells
For “migration class with cell-count check”, NSUN5P1 (NSUN5 pseudogene 1) reads migration z between -2 and 2; enough cells
